Laboratory results from US20050037450A1, “Novel targets for lithium therapy” (Duke University, priority 2002, published 2005).
At least one compound was matched to its structure with a doubt left.

Legend:
cultured IMCD cells = test: cAMP production during stimulation of cultured IMCD cells; type: cell-based, mouse
[1] = tested on: intracellular PAP in yeast; settings: HPLC analysis; cited from earlier work

## [Li] [lithium]
Cultured IMCD cells
  Effect of lithium on cAMP production: inhibition of cAMP production
[1]
  Increase of intracellular PAP on lithium treatment: at least 290 fold
